Experimental findings from patent publication US6461815 are described below.

Data set [1] has as its system 30S ribosomal subunit (mRNA-programmed, activated + ribonucleoprotein). Put plainly: footprint. The settings on record: poly(A)-programmed, 20 C, purified native protein.
Data set [2] has the same test system. As to the kind of experiment: filter binding. Conditions: purified native protein.

The exact form of at least one protein or probe is not confirmed. Negatives hold for the conditions tested.

“UCAGACUUUUAAUCUGA [ASLLys3(UUU), unmodified anticodon stem-loop]”: the binding result in data set [1] (no substantial protection of P-site nucleotides) is “no binding”; in data set [2] (AAA- or AAG-programmed, CMN buffer 20 mM MgCl2) it was “no binding”.

In the case of “UCAGACUUUUAAUCUGA [ASLLys(UUU) with t6A37]”, the binding result in data set [2] (t6A (N6-threonylcarbamoyladenosine) at tRNA position 37, t6A37 critical for binding versus unmodified A37, as in FIG. 2) was “binds”.

As for “UCAGACUUUUAAUCUGA [ASLLys3(SUU), s2U34 anticodon stem-loop]”, the binding result in data set [1] (s2U at tRNA position 34, same 16S P-site footprint as native tRNALys) is recorded as “binds”.
